{"source": "PubChem BioAssay AID540303", "about": "(National Center for Advancing Translational Sciences (NCATS), 2011)", "note": "The campaign covered roughly 330,000 compounds. About 1,000 (0.3%) were called active. This list was built around the results that the source calls inconclusive (neither active nor inactive); the mix of calls is not that of the screen. The call rests on the fitted dose curve; in most records, active means well fitted inhibition curve with a large enough effect; inconclusive means small, poorly fitted or top-dose-only effect; inactive means no such curve, though single readings can be large or run the other way; tested in mouse RAW 264.7 cells. A potency beside an inconclusive call is a rough fit, not a confirmed value. On the % scale 0 is the no-effect control and ±100 the full control effect; potency means the concentration at half of the fitted maximal effect.", "data": [{"assay": "qHTS for Inhibitors of Cell Surface uPA Generation; further: nearly all actives have a fitted effect of over 55% in size", "conditions": "cell surface uPA generation assay; series mostly up to 38.3 µM; activity change, negative = inhibition: at the top concentration", "outline": "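Using RAW 264.7 macrophages, the screen measures whether compounds keep cellular ATP up by preventing uPA-driven LF translocation. Treatment lasted 24 h at 37 C, with a final top concentration of 38.3 uM, and luminescence was the readout.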", "values": [{"compound": "COC(=O)CCCCCNC(=S)Nc1ccc2[nH]c(=O)[nH]c2c1", "Potency": "inconclusive: 0.126 µM [inhibitor, full curve, poor fit]"}, {"compound": "COc1ccc(C(CCNCc2ccc(N(C)C)cc2)C(C)C)cc1", "note": "(stereo not given)", "Potency": "inconclusive: 12.6 µM [inhibitor, single point]"}, {"compound": "CC(C)N(Cc1ccccc1)C(=O)CCS(=O)(=O)c1ccc2c(c1)oc(=O)n2C", "activity change, negative = inhibition": "inactive: -12.3%"}, {"compound": "O=C(CCc1c[nH]c2ccccc12)OCc1cccc(C(F)(F)F)c1", "Potency": "inconclusive: 0.355 µM [inhibitor, full curve, poor fit]"}, {"compound": "CCCCCCCOc1ccc(OC(=O)c2ccncc2)cc1", "Potency": "inconclusive: 0.631 µM [inhibitor, full curve, poor fit]"}, {"compound": "Cc1cc(/N=C/C=C2\\N(C)c3ccccc3C2(C)C)n(CCC#N)n1", "Potency": "inconclusive: 15.8 µM [inhibitor, single point]"}, {"compound": "O=C(CCc1ccccc1)Nc1ccc(S(=O)(=O)N2CCCC2)cc1", "Potency": "inconclusive: 14.1 µM [inhibitor, partial curve, poor fit]"}, {"compound": "O=C1CC(c2ccc(O)c(O)c2)Oc2cc(O)cc(O)c21", "note": "(stereo not given)", "Potency": "inconclusive: 10 µM [inhibitor, partial curve, poor fit]"}, {"compound": "Cc1nnc(SCC(=O)Nc2nsc(-c3ccc(C(C)(C)C)cc3)n2)s1", "Potency": "inconclusive: 11.2 µM [inhibitor, partial curve]"}, {"compound": "CSc1ccc(S(=O)(=O)N2c3ccccc3CC2C)cc1", "note": "(stereo not given)", "Potency": "inconclusive: 6.31 µM [inhibitor, partial curve, poor fit]"}, {"compound": "Cc1cc(=O)n2[nH]c(C)c(-c3ccccc3)c2n1", "activity change, negative = inhibition": "inactive: 2.78%"}, {"compound": "O=C(NCc1cccnc1)/C(=C/c1ccc([N+](=O)[O-])cc1)NC(=O)c1ccccc1", "activity change, negative = inhibition": "inactive: 0.17%"}, {"compound": "O=C(Nc1ccccc1)c1cc(S(=O)(=O)NCc2ccncc2)ccc1Cl", "Potency": "inconclusive: 11.2 µM [inhibitor, single point]"}, {"compound": "CCC1CCCCN1CCCNC(=O)C1CCN(Cc2nc(-c3ccc(Cl)cc3)oc2C)CC1", "note": "(stereo not given)", "Potency": "active: 10 µM"}, {"compound": "COc1ccc2[nH]c(C)c(CCN(Cc3cccs3)C(=S)Nc3ccccc3OC)c2c1", "Potency": "inconclusive: 7.08 µM [inhibitor, partial curve, poor fit]"}, {"compound": "O=C1C(Cl)=C(NCc2ccco2)C(=O)c2ccccc21", "activity change, negative = inhibition": "inactive: -16.8%"}, {"compound": "CC[n+]1c(-c2ccc(C)cc2)csc1Nc1c(C)n(C)n(-c2ccccc2)c1=O", "activity change, negative = inhibition": "inactive: -3.51%"}, {"compound": "CC(C)(C)OC(=O)NCCCCCNC(=O)c1[nH]cnc1C(=O)N[C@@H](CCCCNC(=O)OC(C)(C)C)C(=O)OC(C)(C)C", "activity change, negative = inhibition": "inactive: -0.222%"}, {"compound": "S=c1[nH]nc(Cc2ccccc2)n1-c1ccc(Cl)cc1", "activity change, negative = inhibition": "inactive: 0.351%"}, {"compound": "CCOC(=O)C(=N/O)/C(C)=N/NC(=O)C(=O)Nc1cc(Cl)ccc1Cl", "activity change, negative = inhibition": "inactive: -0.571%"}, {"compound": "CCC(C(=O)NCCCN(CC)Cc1ccccc1)n1nc(C)c2sc3ccccc3c2c1=O", "note": "(stereo not given)", "Potency": "inconclusive: 1.12 µM [inhibitor, single point]"}, {"compound": "O=C(Cn1c(-c2ccccc2Cl)nc2ccccc21)Nc1cccc(Cl)c1", "activity change, negative = inhibition": "inactive: -2.11%"}, {"compound": "COc1ccc(CNc2ccncc2)c(OC)c1OC", "activity change, negative = inhibition": "inactive: 0.408%"}, {"compound": "COc1ccc2[nH]c(=O)c(-c3nnn(-c4ccc(Cl)nc4)n3)cc2c1", "activity change, negative = inhibition": "inactive: -7.55%"}, {"compound": "CN1/C(=C/C(=O)c2nc(S(C)(=O)=O)ncc2Cl)C(C)(C)c2ccccc21", "activity change, negative = inhibition": "inactive: -13.8%"}, {"compound": "CC(OC(=O)CN1C(=O)c2ccccc2C1=O)C(=O)NC1CCCC1", "note": "(stereo not given)", "activity change, negative = inhibition": "inactive: 0.124%"}, {"compound": "CC1(C)CCN2CCC(C)(C)c3c(O)ccc1c32", "Potency": "inconclusive: 11.2 µM [inhibitor, partial curve, poor fit]"}, {"compound": "Cc1ccccc1NCC(=O)N/N=C\\c1ccc([N+](=O)[O-])s1", "Potency": "inconclusive: 14.1 µM [inhibitor, single point]"}, {"compound": "CC(C)C(=O)Nc1ccc(-c2nc3ncccc3o2)cc1", "Potency": "inconclusive: 5.01 µM [inhibitor, partial curve, poor fit]"}, {"compound": "O=C(c1cc(-c2cccc(O)c2)on1)N1CCCCC1", "Potency": "inconclusive: 12.6 µM [inhibitor, single point]"}, {"compound": "CN(C)C1(CNC(=O)c2cccc(S(=O)(=O)NCc3ccccc3)c2)CCCCC1", "Potency": "inconclusive: 12.6 µM [inhibitor, partial curve, poor fit]"}, {"compound": "O=C(c1ccc2c3n(nc2c1)-c1ccc(Cl)cc1CO3)N1CCCCC1", "Potency": "inconclusive: 11.2 µM [inhibitor, single point]"}, {"compound": "COC(=O)c1c(CCl)noc1C(=O)NCC1CCCO1", "note": "(stereo not given)", "Potency": "inconclusive: 6.31 µM [inhibitor, single point]"}, {"compound": "COc1cccc2sc(N(CCN(C)C)C(=O)/C=C/c3cccs3)nc12", "Potency": "inconclusive: 12.6 µM [inhibitor, single point]"}, {"compound": "c1ccc(-c2ccccc2OCCCCN2CCCCCC2)cc1", "Potency": "inconclusive: 12.6 µM [inhibitor, single point]"}, {"compound": "O=c1c2ccccc2sn1-c1ccc(F)cc1", "Potency": "inconclusive: 4.47 µM [inhibitor, partial curve, poor fit]"}, {"compound": "CC1CCN(S(=O)(=O)c2ccc3c(c2)N(CC(=O)N(C)Cc2ccco2)C(=O)CO3)CC1", "Potency": "inconclusive: 3.98 µM [inhibitor, partial curve, poor fit]"}, {"compound": "O=C(Nc1cccc(S(=O)(=O)N2CCCC2)c1)c1ccco1", "activity change, negative = inhibition": "inactive: -2.12%"}, {"compound": "O=C(/C=C\\Nc1ccccn1)c1ccc(Cl)cc1", "Potency": "inconclusive: 3.98 µM [inhibitor, partial curve]"}, {"compound": "Cc1nn(-c2ccccc2)c(N)c1N=Nc1cccnc1", "Potency": "inconclusive: 14.1 µM [inhibitor, partial curve, poor fit]"}, {"compound": "COc1c(C(=O)Nc2nccs2)ccc2ccccc12", "Potency": "inconclusive: 12.6 µM [inhibitor, partial curve, poor fit]"}, {"compound": "Nc1nc(CCl)nc(Nc2cccc3ccccc23)n1", "Potency": "inconclusive: 2.24 µM [inhibitor, full curve, poor fit]"}, {"compound": "CCCc1nnc2n1N=C(c1ccc(C)cc1)CS2", "Potency": "inconclusive: 6.31 µM [inhibitor, single point]"}, {"compound": "O=C(CN1C(=O)c2ccc([N+](=O)[O-])cc2C1=O)NCc1ccc(C(=O)O)cc1", "activity change, negative = inhibition": "inactive: 0.224%"}, {"compound": "C[C@@H]1CN([C@@H](C)CO)C(=O)c2cccc(NC(=O)Nc3ccc(F)cc3)c2O[C@@H]1CN(C)Cc1ccc(Oc2ccccc2)cc1", "Potency": "inconclusive: 12.6 µM [inhibitor, single point]"}, {"compound": "COc1ccc(-c2nn(-c3ccccc3)cc2/C=N/Nc2ccccn2)cc1OC", "Potency": "inconclusive: 28.2 µM [inhibitor, single point]"}, {"compound": "CCc1[nH]nc(C(=O)N2CCCC(C(=O)c3cccc(C(F)(F)F)c3)C2)c1C", "note": "(stereo not given)", "Potency": "inconclusive: 11.2 µM [inhibitor, partial curve, poor fit]"}, {"compound": "CCN1CCN(CC(=O)N2N=C(c3cccs3)CC2c2ccc(OC)c(OC)c2)C(=O)C1=O", "note": "(stereo not given)", "activity change, negative = inhibition": "inactive: -0.671%"}, {"compound": "O=S1(=O)CCOC[C@H](c2ccccc2)N1Cc1cccc(F)c1", "activity change, negative = inhibition": "inactive: 13.9%"}, {"compound": "C[C@H](NC(=O)[C@H](Cc1ccccc1)n1c(=O)[nH]c2ccccc2c1=O)C(=O)N1CCC(C(=O)O)CC1", "Potency": "active: 4.47 µM"}, {"compound": "CC(=O)CSc1nnc(-c2ccco2)n1-c1ccccc1", "Potency": "inconclusive: 2 µM [inhibitor, partial curve, poor fit]"}, {"compound": "Cc1c(NC(=O)C(C)OC(=O)c2ccc([N+](=O)[O-])s2)c(=O)n(-c2ccccc2)n1C", "note": "(stereo not given)", "Potency": "inconclusive: 6.31 µM [inhibitor, single point]"}, {"compound": "COc1ccccc1C1CC(c2ccccc2)=NN1C(=O)c1ccccc1", "note": "(stereo not given)", "Potency": "inconclusive: 12.6 µM [inhibitor, single point]"}, {"compound": "COC(=O)C1(C)NC(c2ccc(O)cc2)C2C(=O)N(c3ccccc3)C(=O)C21", "note": "(stereo not given)", "Potency": "inconclusive: 0.282 µM [inhibitor, full curve, poor fit]"}, {"compound": "CCOc1cccc(CN(CC)CC2CCCN(CCc3cccc(OC)c3)C2)c1O", "note": "(stereo not given)", "activity change, negative = inhibition": "inactive: -3.62%"}, {"compound": "COc1cccc(-c2sc3cc(OC)c(OC)cc3c2-c2ccc(OCCN3CCCCC3)cc2)c1", "Potency": "inconclusive: 22.4 µM [inhibitor, single point]"}, {"compound": "Cc1ccc2c(cnn2C(=O)CCC(=O)NC2CCCC2)c1", "Potency": "inconclusive: 12.6 µM [inhibitor, single point]"}, {"compound": "COC(=O)C1=C(C)N(c2ccc(OC)c(OC)c2)C(=O)C1", "Potency": "inconclusive: 7.08 µM [inhibitor, partial curve, poor fit]"}, {"compound": "C=CCCc1ccc(C#N)c(SCc2c(C(=O)OCC)c3cc(OC(C)=O)c(Br)cc3n2C)n1", "Potency": "inconclusive: 12.6 µM [inhibitor, partial curve, poor fit]"}, {"compound": "CCOc1ccc(C(=O)O/N=C(\\N)c2ccccn2)cc1OCC", "Potency": "inconclusive: 8.91 µM [inhibitor, single point]"}, {"compound": "CC(C)[C@@H](C(=O)NC1CCN(Cc2ccccc2)CC1)N1C(=O)N2CCc3c([nH]c4ccccc34)[C@@]2(C)C1=O", "Potency": "inconclusive: 28.2 µM [inhibitor, single point]"}, {"compound": "COc1cccc(C(=O)Nc2nc3ccccc3s2)c1", "Potency": "inconclusive: 8.91 µM [inhibitor, single point]"}, {"compound": "Cc1ccc(Cl)cc1N1CCN(C(=O)c2noc(C(C)C)c2[N+](=O)[O-])CC1", "Potency": "inconclusive: 2.82 µM [inhibitor, full curve]"}, {"compound": "COc1ccc2nc(NC(=O)CS(=O)(=O)Cc3ccccc3)sc2c1", "Potency": "inconclusive: 14.1 µM [inhibitor, single point]"}, {"compound": "CCOc1ccc(NC(=O)C2C3C=CC4(CN(C(C(=O)OC)C(C)C)C(=O)C24)O3)cc1", "note": "(stereo not given)", "Potency": "inconclusive: 3.98 µM [inhibitor, partial curve, poor fit]"}]}]}
